## Primary screen of a compound library

Mtb growth Cornell: 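Whole-cell assay for inhibitors of Mycobacterium tuberculosis growth, labelled Cornell in the record; the read-out is not stated. The concentration is filed as 10 mM, unlikely as a test dose, so the dose is not known. The record gives no direction; compounds strong in two other growth screens of this library score well above the rest, so higher reads as stronger inhibition. Size under these conditions: about 53,000 compounds, about 900 of them at 50% or above in at least one test.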
Mtb heat-shock: 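Assay on Mycobacterium tuberculosis, filed only as a heat shock assay from Cornell; the read-out is not stated. The concentration is filed as 10 mM, unlikely as a test dose, so the dose is not known. The record gives no direction; compounds that gave an IC50 in retests scored well above the rest, so higher reads as stronger inhibition. Of about 69,000 compounds tested this way, about 930 (1.4%) reached 50% or more in at least one test.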

The filed quantity is “Percent Effect” (%).
How 0% and 100% were set is not recorded. Most values in the screen are low, and negative values occur.
The compounds are a random part of those screened.

Result for CN1CCC(C)(CN(C)C(=O)c2ccc(CCC(C)(C)O)cc2)C1 (configuration not stated) was Mtb growth Cornell: 10.3%; Mtb heat-shock: 4.834%.
Result for CS(=O)(=O)NC1CCN(CCOCc2ccccc2)CC1 was Mtb growth Cornell: 6.693%; Mtb heat-shock: 12.63%.
Result for CCOC1CCN(C(=O)NCCc2ccn(-c3ccccc3)n2)CC1 was Mtb heat-shock: 5.845%.
Result for CC(C)CNC(=O)c1cn(C(C)C)cc2c(=O)[nH]nc1-2 was Mtb growth Cornell: -1.668%; Mtb heat-shock: -0.5141%.
Result for Cc1csc(CCNC(=O)c2cc3c(nc2O)CCC(C)C3)n1 (configuration not stated) was Mtb growth Cornell: -31.5%; Mtb heat-shock: 8.893%.
Result for CN(CCCc1cc(-c2ccc(F)cc2)n[nH]1)C(=O)CCn1cncn1 was Mtb growth Cornell: 0.3793%; Mtb heat-shock: -9.328%.
Result for CCc1nc(CN2CCCC(N(C)Cc3cnn(C)c3)C2)no1 (configuration not stated) was Mtb growth Cornell: 6.464%; Mtb heat-shock: -12%.
Result for [H][C@]12CC[C@]([H])(CN(Cc3ccncc3)C1)N(C(=O)N1CCCC1)C2 was Mtb heat-shock: -0.6933%.
Result for [H][C@@]12CN(C3CCSCC3)C[C@]1([H])N(CCc1ccc(OC)cc1)C(=O)O2 was Mtb growth Cornell: 2.791%; Mtb heat-shock: 2.395%.
Result for Cc1nc(C2CCCN(C(=O)c3cc4c(s3)CCCC4)C2)no1 (configuration not stated) was Mtb heat-shock: -1.55%.
Result for Cc1cnn(CC2CN(CCCS(=O)(=O)N(C)C)CCO2)c1 (configuration not stated) was Mtb growth Cornell: -8.517%; Mtb heat-shock: 0.5897%.
Result for O=C(Nc1ccnc(OC2CCOC2)c1)c1cc(F)ccc1F (configuration not stated) was Mtb growth Cornell: -16.29%; Mtb heat-shock: 8.654%.
Result for O=C(c1cc2c([nH]c1=O)CCC2)N1CCCCC1c1cccc(F)c1 (configuration not stated) was Mtb heat-shock: -2.982%.
Result for NC(=O)CN1C[C@@H](c2ccccc2F)[C@@]2(CCCCC(=O)N2)C1 was Mtb growth Cornell: 16.97%; Mtb heat-shock: -0.2993%.
Result for CC(C)c1ncncc1C(=O)NCCN1CCCCC1C (configuration not stated) was Mtb growth Cornell: 9.963%; Mtb heat-shock: 9.052%.
Result for COC(=O)c1ccc2ccn(CC3COCCO3)c(=O)c2c1 (configuration not stated) was Mtb growth Cornell: 16.37%; Mtb heat-shock: 6.716%.
Result for CC(C)(C)S(=O)(=O)c1ccc(N2CCN(c3ccccn3)CC2)nn1 was Mtb growth Cornell: -34.72%; Mtb heat-shock: 7.963%.
Result for O=C(O)C(F)(F)F.[H][C@]12CC[C@@]3(N=C(C)N(CC4CC4)C3=O)[C@@]1([H])CN(Cc1cccc(Cl)c1)C2 was Mtb growth Cornell: 18.39%; Mtb heat-shock: 3.209%.
Result for CC(C)C(=O)N1CCC([C@@H]2C[C@H](C(F)F)n3ncnc3N2)CC1 was Mtb growth Cornell: -23.89%; Mtb heat-shock: -31.39%.
Result for CCN1CC2(CCC1=O)CCN(c1ccc(C(C)=O)cn1)CC2 was Mtb growth Cornell: -9.667%; Mtb heat-shock: -8.755%.
Result for O=C(CCCOc1ccccc1F)NCCCC(=O)Nc1cn[nH]c1 was Mtb growth Cornell: -0.1838%; Mtb heat-shock: -17.52%.
Result for COCCC(=O)N1CCC2(CC1)CN(C(C)=O)Cc1ccccc1O2 was Mtb growth Cornell: -29.96%; Mtb heat-shock: 18.53%.
Result for [H][C@@]12CC[C@H](Oc3ccccc3)[C@]1([H])CN(C(=O)Cn1ccnc1)C2 was Mtb growth Cornell: 22.12%; Mtb heat-shock: -6.254%.
Result for O=C(O)C(F)(F)F.O=C(c1ccc(F)cc1)N1CCC2(CCCN2CC2CC2)CC1 was Mtb growth Cornell: 11.64%; Mtb heat-shock: -17.36%.
Result for COc1cccc(C(=O)NC(CC(=O)O)c2cccs2)c1OC (configuration not stated) was Mtb growth Cornell: -14.42%; Mtb heat-shock: 11.13%.
Result for CC(C)(C)OC(=O)N1CCCc2ccc(NCc3cc[nH]c3)cc21 was Mtb heat-shock: -2.058%.
Result for O=C(CNCCn1cccn1)NCC1(c2ccccc2)CC1 was Mtb heat-shock: -10.17%.
Result for CN(C)Cc1cncc2c1CCN(CC(=O)N(C)C)C2 was Mtb growth Cornell: -27.89%; Mtb heat-shock: 16.93%.
Result for CC(NCc1cccc(S(=O)(=O)N(C)C)c1)c1ccccn1 (configuration not stated) was Mtb heat-shock: -29.89%.
Result for CCN(Cc1cccc2c1OCO2)C(=O)Nc1cn[nH]c1 was Mtb heat-shock: -39.14%.
Result for COc1cc(C)ccc1C(=O)N1C[C@@H](CN(C)CCO)[C@@H](CO)C1 was Mtb growth Cornell: -4.452%; Mtb heat-shock: 3.114%.
Result for O=C(O)C(F)(F)F.[H][C@]12CCN(C(=O)c3cc[nH]n3)CC[C@@]1([H])S(=O)(=O)N(Cc1ccccc1)C2 was Mtb growth Cornell: 7.225%; Mtb heat-shock: -22.77%.
Result for N#Cc1cc(F)ccc1CN1CCCCC1Cn1cccn1 (configuration not stated) was Mtb heat-shock: -14.49%.
Result for CCCN(CC(=O)OC)S(=O)(=O)c1cnc2c(c1)c(C)nn2C was Mtb heat-shock: 5.715%.
Result for CC(C)c1nc(C2CCCN(c3nccc(N4CCCC4)n3)C2)no1 (configuration not stated) was Mtb heat-shock: 2.892%.
Result for Cc1cc(CN(Cc2cccs2)CC2CCCO2)on1 (configuration not stated) was Mtb growth Cornell: -21.81%; Mtb heat-shock: -7.813%.
Result for CC(C)C(=O)N1Cc2ccccc2CC2(CCCCN2C)C1 (configuration not stated) was Mtb heat-shock: -38.24%.
Result for Cc1cc(NC(=O)NCc2nncn2C)ccc1OC(C)C was Mtb growth Cornell: -0.4289%; Mtb heat-shock: -52.68%.
Result for [H][C@@]12C[C@@H](c3nnc(C)[nH]3)O[C@]1([H])CN(C(=O)c1cc(C)nn1CC)C2 was Mtb growth Cornell: -8.9%; Mtb heat-shock: 40.08%.
Result for CN1CC(C(=O)NCCc2ccc(Br)cc2F)CC1=O (configuration not stated) was Mtb growth Cornell: -7.018%; Mtb heat-shock: -6.818%.
Result for CCCc1cc(CNC2CCN(c3nc4ccccc4s3)CC2)on1 was Mtb growth Cornell: 36.61%; Mtb heat-shock: 4.923%.
Result for COc1ccc(-c2nccc(C3CCCN3C)n2)cc1 (configuration not stated) was Mtb growth Cornell: -2.578%; Mtb heat-shock: 24.74%.
Result for CCC(CN1CCOCC1)NC(=O)Cc1c(C)[nH]c2cc(C)cc(C)c12 (configuration not stated) was Mtb growth Cornell: 10.25%; Mtb heat-shock: -8%.
Result for Cc1ccc(CC(=O)N2C[C@@H](CN(C)C)[C@@H](CO)C2)cc1C was Mtb growth Cornell: 0.3409%; Mtb heat-shock: -28.69%.
Result for Cc1cc(-n2cncn2)ccc1C(=O)Nc1ccc(N2CCCC2)cn1 was Mtb growth Cornell: 9.085%; Mtb heat-shock: 7.498%.
Result for O=C(O)C(F)(F)F.O=C(O)C(F)(F)F.[H][C@@]12CCN(c3ccc(C)nn3)[C@@]1([H])CCN2Cc1ccsc1 was Mtb growth Cornell: 2.902%; Mtb heat-shock: -10.53%.
Result for CCCC(C#N)NC(=O)COC1CCCCC1 (configuration not stated) was Mtb growth Cornell: -12.3%; Mtb heat-shock: -34.76%.

Data taken from ChEMBL document CHEMBL3988442, “University of Dundee, Small-Polar-MMV Screening Library” (2021).